Assay results as given in patent US20060241082A1, “Modulating vesicular monoamine transporter trafficking and function: a novel approach for the treatment of parkinson's disease” (priority 2002, published 2006).
Where “and” joins values, the source holds several entries; their conditions need not be identical. Identical values can stand only once. Counter-ions that a name gives are not always drawn.

Test: Core (rectal) body temperature of treated rats
Assay type: in vivo, rat

## CN[C@@H](C)Cc1ccccc1 (racemic) [METH, methamphetamine]
METH 15 mg/kg s.c., 6° C. ambient
  core body temperature in METH-treated rats exposed to the cool environment: 38.1±0.1 °C
rats, METH 15 mg/kg s.c., 24° C. ambient
  core body temperature after METH: 40.1±0.1 °C and 40.5±0.1 °C

## COC(=O)C(c1ccccc1)C1CCCCN1 (centres unmarked) [MPD, methylphenidate]
rats, MPD 5 mg/kg s.c., METH 4 x 7.5 mg/kg s.c.
  effect of MPD on the hyperthermia induced acutely by METH: nor did it prevent

## CCc1cc(Cl)c(OC)c(C(=O)NC[C@@H]2CCCN2CC)c1O [eticlopride, (−)-Eticlopride hydrochloride]
28.5° C. ambient
  body temperature in eticlopride-pretreated METH-treated rats exposed to warmer ambient temperature: 39.8±0.1 DC
Eticlopride 0.5 mg/kg i.p. 15 min prior to METH 15 mg/kg s.c., 24° C. ambient
  core body temperature in METH-treated rats pretreated with eticlopride: 38.4±0.1 °C
